We go through 2 substances from paper PMC3307762.

The chains behind the UniProt entries cited, without tags or fusion partners.
UniProt Q92973: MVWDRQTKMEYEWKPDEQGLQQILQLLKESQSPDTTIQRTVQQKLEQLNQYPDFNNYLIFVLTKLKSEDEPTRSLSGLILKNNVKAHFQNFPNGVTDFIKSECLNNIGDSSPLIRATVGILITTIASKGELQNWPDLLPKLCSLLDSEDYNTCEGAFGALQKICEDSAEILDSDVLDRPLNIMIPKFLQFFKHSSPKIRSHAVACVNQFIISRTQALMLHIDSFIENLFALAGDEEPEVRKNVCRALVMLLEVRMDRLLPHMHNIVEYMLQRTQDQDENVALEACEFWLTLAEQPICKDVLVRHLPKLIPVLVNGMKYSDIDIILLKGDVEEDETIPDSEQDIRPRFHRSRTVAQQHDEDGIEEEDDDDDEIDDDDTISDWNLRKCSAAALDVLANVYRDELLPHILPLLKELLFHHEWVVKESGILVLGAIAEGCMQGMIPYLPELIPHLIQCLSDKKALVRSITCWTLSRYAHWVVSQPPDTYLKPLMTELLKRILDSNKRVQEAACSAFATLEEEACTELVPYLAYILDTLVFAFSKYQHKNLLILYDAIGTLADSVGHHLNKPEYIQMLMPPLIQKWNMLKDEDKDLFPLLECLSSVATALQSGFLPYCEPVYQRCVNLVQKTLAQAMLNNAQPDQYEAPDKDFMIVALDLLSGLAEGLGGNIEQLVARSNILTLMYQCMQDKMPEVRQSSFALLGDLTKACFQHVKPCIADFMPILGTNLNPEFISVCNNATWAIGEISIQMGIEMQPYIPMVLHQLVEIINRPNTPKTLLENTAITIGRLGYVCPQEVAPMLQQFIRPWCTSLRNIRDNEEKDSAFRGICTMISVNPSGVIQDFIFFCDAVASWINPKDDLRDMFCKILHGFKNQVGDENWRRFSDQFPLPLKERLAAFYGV
UniProt Q14974: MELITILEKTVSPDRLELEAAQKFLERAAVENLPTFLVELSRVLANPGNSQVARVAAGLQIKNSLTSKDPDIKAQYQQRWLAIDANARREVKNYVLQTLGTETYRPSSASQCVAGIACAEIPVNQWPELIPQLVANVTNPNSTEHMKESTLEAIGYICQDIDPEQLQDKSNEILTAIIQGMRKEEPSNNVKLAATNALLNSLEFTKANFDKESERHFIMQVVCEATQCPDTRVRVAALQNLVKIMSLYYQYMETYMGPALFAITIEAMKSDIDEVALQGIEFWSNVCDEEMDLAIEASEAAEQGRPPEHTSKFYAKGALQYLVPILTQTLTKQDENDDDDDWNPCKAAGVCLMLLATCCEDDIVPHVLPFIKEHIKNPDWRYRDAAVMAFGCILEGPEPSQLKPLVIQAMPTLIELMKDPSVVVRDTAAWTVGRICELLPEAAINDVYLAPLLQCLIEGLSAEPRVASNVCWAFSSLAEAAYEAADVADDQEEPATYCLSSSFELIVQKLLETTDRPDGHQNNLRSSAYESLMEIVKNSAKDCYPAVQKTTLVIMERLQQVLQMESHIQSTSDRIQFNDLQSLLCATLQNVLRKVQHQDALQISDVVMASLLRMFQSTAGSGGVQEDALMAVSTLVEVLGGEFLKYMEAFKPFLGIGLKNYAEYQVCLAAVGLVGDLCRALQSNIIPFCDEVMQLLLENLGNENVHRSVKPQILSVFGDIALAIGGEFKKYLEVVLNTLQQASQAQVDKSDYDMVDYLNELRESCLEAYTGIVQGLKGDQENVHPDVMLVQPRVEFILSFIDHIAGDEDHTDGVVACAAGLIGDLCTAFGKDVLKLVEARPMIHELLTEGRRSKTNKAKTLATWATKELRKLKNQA

Experiment in all cases: co-IP; anti-HA i.p. of HA-necdin (wild type or mutants) from transfected HEK293 cells, 1 mg total lysate, Western blot for transportin 1 or importin β1; control i.p. with an irrelevant antibody
In general terms: A western blot detects proteins with antibodies after separation by electrophoresis.

In experiment [1] the target is T1, HA-necdin (in HEK293 cells) (mouse) (UniProt P25233).
T1 sequence: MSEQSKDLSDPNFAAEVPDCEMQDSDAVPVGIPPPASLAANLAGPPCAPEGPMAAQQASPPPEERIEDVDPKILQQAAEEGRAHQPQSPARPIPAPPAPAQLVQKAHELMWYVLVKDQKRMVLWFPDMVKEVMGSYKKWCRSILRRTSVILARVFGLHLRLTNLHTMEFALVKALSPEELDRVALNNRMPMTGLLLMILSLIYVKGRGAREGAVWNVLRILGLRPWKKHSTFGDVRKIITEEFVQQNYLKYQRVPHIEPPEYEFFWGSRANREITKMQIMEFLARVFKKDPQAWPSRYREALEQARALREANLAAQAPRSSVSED

The target of experiment [2] is T2, HA-necdin D234P (mouse) (UniProt P25233).
T2 sequence: T1 sequence with D234P

In experiment [3] the target is T3, HA-necdin G233A (mouse) (UniProt P25233).
T3 sequence: T1 sequence with G233A

Where a chain is given by its changes, count along the chain named. Results are given in words; binding and its absence hold for the method and conditions named. In cells and extracts the contact can be indirect. Some binding calls cover weakened binding; strength is not graded here. Tags and fused reporters may be left off the sequences shown.

In the case of “transportin 1 (in HEK293 cells) (from UniProt Q92973 1-898)”, the binding result in experiment [1], in experiment [2] and in experiment [3] was “binds” throughout.
Consider “importin β1 (in HEK293 cells) (from UniProt Q14974 1-876)”, for which the binding result in experiment [1] and in experiment [2] was “binds” each time.
